{"sequences": {"note": "The chains behind the UniProt entries cited, without tags or fusion partners. Residues count along the entry.", "UniProt P52799, residues 28-333": "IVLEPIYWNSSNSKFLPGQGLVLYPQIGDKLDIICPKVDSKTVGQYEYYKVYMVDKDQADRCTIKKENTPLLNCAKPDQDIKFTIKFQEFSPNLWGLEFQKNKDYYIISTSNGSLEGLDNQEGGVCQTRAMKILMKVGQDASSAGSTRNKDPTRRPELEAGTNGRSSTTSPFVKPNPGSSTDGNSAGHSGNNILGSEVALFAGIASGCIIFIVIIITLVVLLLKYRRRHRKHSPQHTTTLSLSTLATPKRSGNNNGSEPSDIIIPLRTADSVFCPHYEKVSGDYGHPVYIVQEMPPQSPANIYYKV"}, "source": "paper PMC10949843", "binders": {"B1": {"name": "sEPHB3-hFc (Fc fusion, UniProt P54753)", "chain": "GCRALEETLMDTKWVTSELAWTSHPESGWEEVSGYDEAMNPIRTYQVCNVRESSQNNWLRTGFIWRRDVQRVYVELKFTVRDCNSIPNIPGSCKETFNLFYYEADSDVASASSPFWMENPYVKVDTIAPDESFSRLDAGRVNTKVRSFGPLSKAGFYLAFQDQGACMSLISVRAFYKKCASTTAGFALFPETLTGAEPTSLVIAPGTCIPNAVEVSVPLKLYCNGDGEWMVPVGACTCATGHEPAAKESQCRPCPPGSYKAKQGEGPCLPCPPNSRTTSPAASICTCHNNFYRADSDSADSACTTVPSPPRGVISNVNETSLILEWSEPRDLGGRDDLLYNVICKKCHGAGGASACSRCDDNVEFVPRQLGLTERRVHISHLLAHTRYTFEVQAVNGVSGKSPLPPRYAAVNITTNQAAPSEVPTLRLHSSSGSSLTLSWAPPERPNGVILDYEMKYFEKSEGIASTVTSQMNSVQLDGLRPDARYVVQVRARTVAGYGQYSRPAEFETTSERGSGAQQLQEQLPL"}}, "key": {"[1]": {"molecular_target": "WT EFNB2 on Cho cells (UniProt P52799)", "assay": "flow cytometry on cells; only the binder purified"}, "[2]": {"molecular_target": "T1, WT EFNB3 on Cho cells (UniProt Q15768)", "T1 sequence": "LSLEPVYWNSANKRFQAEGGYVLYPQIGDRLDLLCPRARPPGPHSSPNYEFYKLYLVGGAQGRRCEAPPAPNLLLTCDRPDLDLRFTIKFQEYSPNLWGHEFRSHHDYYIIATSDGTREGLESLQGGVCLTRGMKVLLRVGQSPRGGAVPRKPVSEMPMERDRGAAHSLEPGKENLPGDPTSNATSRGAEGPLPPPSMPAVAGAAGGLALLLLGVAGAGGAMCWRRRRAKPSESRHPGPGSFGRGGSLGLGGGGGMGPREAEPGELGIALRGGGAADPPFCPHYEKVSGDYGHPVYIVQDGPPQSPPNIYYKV", "assay": "flow cytometry on cells; only the binder purified"}}, "note": "These are yes or no findings as the source states them, for the method shown. Some results given as binding are weak or reduced against the parent protein; the word gives no strength."}
{"binder": "B1", "values": [{"measurement": "binding", "setting": "[1]", "value": "binds"}, {"measurement": "binding", "setting": "[2]", "value": "binds"}]}
